# Source: the supplement of paper PMC8728848
# The list shows a part of the results.
# B1: PX14343F-bfa-562-20-562 (Bacteroides fragilis) (protein)
# chain: CDDFLDSFPQDTVTNENFWKSKEDADKVLVDIYASLLPKDAIFFDEAMSDNAYLVWDWWGGAQQVANGSYTTSGEIPTNRWNGSYEVIRKCWFLLEGIEKIEDISEQDKNKIIGETYFMLAYNYYVLTSYFGDVPLVTKTLAIPESKQLVRTPKAEVVDYAINKLKEAAVMLEGLSQEKGRVTADACRFLIARMYLYNGDYSNVLETVKLLEGKYQLYREGDTPYEDLFSGVAENSCEVILSVVCDKRVGEIYTSHGGNGIMLLKGITGEDPYRGVTPSGSLVDAYPMADGRLIHEAGSSYDPKKPYEGRDPRFYQSIVYPTGQIKYLDVETGTVKERLYDPEDPTTVPEHQYNYSQPSATGYMWNKYIDYSVYAMNSVWDCTNDIIVFRYADVLLMKAEALLQTKGESAKEEVCNLIDQLRDRCSCGRVHRENYNSKDELMELLKNERRIELANEGLRYMDLIRWKDAEKNTIVTGVGLTGQMYGAYMRKDGVGKDDKTVDVDNTPRRYIETRYFNASKGYLFPIPQKERDLNPNLTQNPNW
# Columns and labels:
# Assay in all cases: glycan array binding signal (z-score within array); higher = stronger binding
# Conditions in all cases: glycan notation: IUPAC condensed, linker removed
# [1] = target: Gal(a1-3)Gal(b1-4)GlcNAc(b1-2)Man
# Summary of the method: (§1)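 Columns mapping to the same glycan were averaged after glycan names were converted to IUPAC-condensed notation. The data come from 3228 arrays in the Consortium for Functional Glycomics database, limited to those with an available protein sequence. Binding is reported as a within-array Z-score averaged across arrays of one protein sequence and across linkers.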
# [2] = target: Gal(a1-3)Gal(b1-4)GlcNAc(b1-2)Man(a1-3)[Gal(a1-3)Gal(b1-4)GlcNAc(b1-2)Man(a1-6)]Man(b1-4)GlcNAc(b1-4)GlcNAc
# Summary of the method: as §1
# [3] = target: Gal(a1-3)Gal(b1-4)GlcNAc(b1-3)GalNAc
# Summary of the method: as §1
# [4] = target: Gal(a1-3)Gal(b1-4)GlcNAc(b1-6)GalNAc
# Summary of the method: as §1
# [5] = target: Gal(a1-3)Gal(b1-4)[Fuc(a1-3)]GlcNAc
# Summary of the method: as §1
# [6] = target: Gal(a1-3)Gal(b1-4)[Fuc(a1-3)]GlcNAc(b1-2)Man(a1-3)[Gal(a1-3)Gal(b1-4)[Fuc(a1-3)]GlcNAc(b1-2)Man(a1-6)]Man(b1-4)GlcNAc(b1-4)GlcNAc
# Summary of the method: as §1
# [7] = target: Gal(a1-3)GalNAc
# Summary of the method: as §1
# [8] = target: Gal(a1-3)[Gal(a1-4)]Gal(b1-4)GlcNAc
# Summary of the method: as §1
# [9] = target: Gal(a1-4)Gal(b1-3)GlcNAc(b1-2)Man(a1-3)[Gal(a1-4)Gal(b1-3)GlcNAc(b1-2)Man(a1-6)]Man(b1-4)GlcNAc(b1-4)GlcNAc
# Summary of the method: as §1
# [10] = target: Gal(a1-4)Gal(b1-4)Glc
# Summary of the method: as §1
# [11] = target: Gal(a1-4)Gal(b1-4)GlcNAc
# Summary of the method: as §1
# [12] = target: Gal(a1-4)Gal(b1-4)GlcNAc(b1-2)Man(a1-3)[Gal(a1-4)Gal(b1-4)GlcNAc(b1-2)Man(a1-6)]Man(b1-4)GlcNAc(b1-4)GlcNAc
# Summary of the method: as §1
# [13] = target: Gal(a1-4)Gal(b1-4)GlcNAc(b1-3)Gal(b1-4)Glc
# Summary of the method: as §1
# [14] = target: Gal(a1-4)GlcNAc
# Summary of the method: as §1
# [15] = target: Gal(a1-6)Glc
# Summary of the method: as §1
# [16] = target: Gal(b1-2)Gal
# Summary of the method: as §1
# [17] = target: Gal(b1-3)Gal
# Summary of the method: as §1
# [18] = target: Gal(b1-3)Gal(b1-4)GlcNAc
# Summary of the method: as §1
# [19] = target: Gal(b1-3)GalNAc
# Summary of the method: as §1
# [20] = target: Gal(b1-3)GalNAc(a1-3)[Fuc(a1-2)]Gal(b1-4)Glc
# Summary of the method: as §1
# [21] = target: Gal(b1-3)GalNAc(a1-3)[Fuc(a1-2)]Gal(b1-4)GlcNAc
# Summary of the method: as §1
# [22] = target: Gal(b1-3)GalNAc(b1-3)Gal
# Summary of the method: as §1
# [23] = target: Gal(b1-3)GalNAc(b1-3)Gal(a1-4)Gal(b1-4)Glc
# Summary of the method: as §1
# [24] = target: Gal(b1-3)GalNAc(b1-4)Gal(b1-4)Glc
# Summary of the method: as §1
# [25] = target: Gal(b1-3)GalNAc(b1-4)[Neu5Ac(a2-3)]Gal(b1-4)Glc
# Summary of the method: as §1
# [26] = target: Gal(b1-3)GlcNAc
# Summary of the method: as §1
# [27] = target: Gal(b1-3)GlcNAc(a1-3)Gal(b1-4)GlcNAc
# Summary of the method: as §1
# [28] = target: Gal(b1-3)GlcNAc(a1-6)Gal(b1-4)GlcNAc
# Summary of the method: as §1
# [29] = target: Gal(b1-3)GlcNAc(b1-2)Man
# Summary of the method: as §1
# [30] = target: Gal(b1-3)GlcNAc(b1-2)Man(a1-3)[Gal(b1-3)GlcNAc(b1-2)Man(a1-6)]Man(b1-4)GlcNAc(b1-4)GlcNAc
# Summary of the method: as §1
binder,measurement,setting,value
B1,glycan array binding signal (z-score),[1],0.106
same,glycan array binding signal (z-score),[2],0.153
same,glycan array binding signal (z-score),[3],0.157
same,glycan array binding signal (z-score),[4],-0.294
same,glycan array binding signal (z-score),[5],-0.135
same,glycan array binding signal (z-score),[6],1.13
same,glycan array binding signal (z-score),[7],0.387
same,glycan array binding signal (z-score),[8],3.69
same,glycan array binding signal (z-score),[9],0.16
same,glycan array binding signal (z-score),[10],-1.36
same,glycan array binding signal (z-score),[11],-0.217
same,glycan array binding signal (z-score),[12],1.42
same,glycan array binding signal (z-score),[13],-0.481
same,glycan array binding signal (z-score),[14],0.167
same,glycan array binding signal (z-score),[15],0.197
same,glycan array binding signal (z-score),[16],0.188
same,glycan array binding signal (z-score),[17],-0.31
same,glycan array binding signal (z-score),[18],-0.446
same,glycan array binding signal (z-score),[19],0.202
same,glycan array binding signal (z-score),[20],-0.723
same,glycan array binding signal (z-score),[21],0.008
same,glycan array binding signal (z-score),[22],-0.278
same,glycan array binding signal (z-score),[23],1.02
same,glycan array binding signal (z-score),[24],-0.716
same,glycan array binding signal (z-score),[25],-0.477
same,glycan array binding signal (z-score),[26],-0.481
same,glycan array binding signal (z-score),[27],-0.574
same,glycan array binding signal (z-score),[28],-0.363
same,glycan array binding signal (z-score),[29],-0.636
same,glycan array binding signal (z-score),[30],-0.367

# 2 entries from above, tab-delimited.
binder	measurement	setting	value
B1	glycan array binding signal (z-score)	[28]	-0.363
same	glycan array binding signal (z-score)	[29]	-0.636
